# In all, about 340,000 compounds went through this assay and about 6,200 (1.8%) were called active. The shares of active, inactive and inconclusive entries below differ from those in the screen. The call rests on the fitted dose curve; in most records, active means well fitted activation curve with a large enough effect; inconclusive means small, poorly fitted or top-dose-only effect; inactive means no such curve, though single readings can be large or run the other way. A potency beside an inconclusive call is a rough fit, not a confirmed value.
# Test: A quantitative high throughput screen for small molecules that induce DNA re-replication in SW480 colon adenocarcinoma cells. Further: nearly all actives have a fitted effect of over 55% in size. On re-replication activation: % of control where 0% means no effect.
# Settings: Hoechst DNA content imaging, 48 h; re-replication activation: at 46.1 µM (top of the series) unless noted
# Method in brief: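 Image-based read-out: total Hoechst fluorescence of nuclei (405 nm excitation, 500-530 nm emission), with hits raising the fraction of high-intensity nuclei. SW480 colon cells incubated 48 hr with compounds at 37 C.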
# Potency means the concentration at half of the fitted maximal effect.
Structure (SMILES),Potency,re-replication activation
Cc1cc(N2CCN(c3ccccc3)CC2)nc2ccccc12,"inconclusive: 13 µM [activator, partial curve, poor fit]",–
CC1CCCN(C(=S)NCCc2ccccc2)C1 (stereo not drawn),–,inactive: -3.63% [at 9.22 µM]
O=C(Nc1ncc2c(n1)-c1ccccc1CC2)c1cccc(Cl)c1,"inconclusive: 20.6 µM [activator, single point]",–
CCC(CC)NC(=O)c1cc2c(C)nn(Cc3ccccc3Cl)c2s1,"inconclusive: 4.11 µM [activator, full curve, poor fit]",–
Cc1cccn2c(=O)c3cc(S(=O)(=O)c4ccc(F)cc4)c(=N)n(Cc4ccco4)c3nc12,"inconclusive: 2.06 µM [activator, full curve]",–
CS(=O)(=O)N(CC(O)Cn1c2ccccc2c2ccccc21)c1cccc2ccccc12 (stereo not drawn),"inconclusive: 20.6 µM [activator, single point]",–
Cc1ccc(C)c(N2CN(Cc3ccco3)CNC2=S)c1,–,inactive: -24.1%
CSc1cccc(NC(=O)CCn2c(=O)c3cccn3c3cccnc32)c1,"inconclusive: 2.91 µM [activator, single point]",–
O=C1CCC[C@@H]2C[C@@]3(C[C@@H]4CCN1[C@H]24)Nc1cc(Cl)ccc1NC3=NC1CCCCC1,"inconclusive: 6.51 µM [activator, single point]",–
CC(=O)OCC(OC(C)=O)C(OC(C)=O)C(OC(C)=O)C(=O)Nc1ccccc1 (stereo not drawn),"inconclusive: 29.1 µM [activator, single point]",–
O=C(c1ccc(Cl)c([N+](=O)[O-])c1)N1CCN(c2ccccc2)CC1,"inconclusive: 29.1 µM [activator, single point]",–
CC(C)C(=O)N1CCC2(CC1)Oc1ccc(Cl)cc1C(=O)C21CC(c2cccnc2)=NO1 (stereo not drawn),"inconclusive: 23.1 µM [activator, single point]",–
CC1(C)CC2c3cccc(C(=O)O)c3C(=O)N2c2c1ccc1ccccc21 (stereo not drawn),"inconclusive: 0.0651 µM [activator, full curve, poor fit]",–
CC(O)CCC(=O)NNC(=S)Nc1ccccc1 (stereo not drawn),"inconclusive: 32.6 µM [activator, single point]",–
CCN(CC(=O)Nc1ccc(NC(C)=O)cc1)C(=O)CC1OC(=O)c2ccccc21 (stereo not drawn),–,inactive: -0.527%
O=C(/C=C/c1ccccc1)NC(=S)Nc1ccc(N2CCOCC2)cc1,–,inactive: 3.01%
CCn1nc(C)cc1Nc1ccccc1,–,inactive: -13.1%
CCSc1nc(-c2ccco2)ccc1C#N,–,inactive: 4.93%
COC(=O)C1=C(C)NC(C)=C(C(=O)OC(C)C)C1c1cccc2nonc12 (stereo not drawn),"inconclusive: 0.231 µM [activator, single point]",–
CN(CCc1ccccc1)C(=O)c1cccc(NC(=O)Cc2cccc(NC(=O)C3CCCN(S(=O)(=O)c4cccc([N+](=O)[O-])c4)C3)c2)c1 (stereo not drawn),"inconclusive: 25.9 µM [activator, single point]",–
CCc1cc(C(=O)NC2CCCN(Cc3ccccc3F)C2)n(C)n1 (stereo not drawn),active: 2.06 µM,–
COc1cc(NC(=O)Cn2cnc(S(=O)(=O)N3CCCC3)c2)cc(OC)c1OC,"inconclusive: 6.51 µM [activator, full curve, poor fit]",–
Cc1nn(C)cc1C(=O)/C=C/c1ccc([N+](=O)[O-])cc1,"inconclusive: 29.1 µM [activator, single point]",–

# Reprinted from above for reference:
Structure (SMILES),Potency,re-replication activation
Cc1cccn2c(=O)c3cc(S(=O)(=O)c4ccc(F)cc4)c(=N)n(Cc4ccco4)c3nc12,"inconclusive: 2.06 µM [activator, full curve]",–
CS(=O)(=O)N(CC(O)Cn1c2ccccc2c2ccccc21)c1cccc2ccccc12 (stereo not drawn),"inconclusive: 20.6 µM [activator, single point]",–
Cc1ccc(C)c(N2CN(Cc3ccco3)CNC2=S)c1,–,inactive: -24.1%
CSc1cccc(NC(=O)CCn2c(=O)c3cccn3c3cccnc32)c1,"inconclusive: 2.91 µM [activator, single point]",–

# Continuation.

Structure (SMILES),Potency,re-replication activation
COc1ccc(OC)c(NC(=O)CCC(=O)N(Cc2ccc(OC)c(OC)c2)c2nccs2)c1,"inconclusive: 6.51 µM [activator, single point]",–
O=S(=O)(c1cnc(Cl)c(Cl)c1)N1CCCc2ccccc21,"inconclusive: 25.9 µM [activator, single point]",–
CN(C)CCCNC(=O)c1ccc(-c2nc(-c3ccc(Cl)cc3)cs2)cc1,–,inactive: 9.91%
CCCC(CCC(=O)Nc1ccc(C(=O)OCC)cc1)C(=O)O (stereo not drawn),–,inactive: -0.219%
CN(c1nc2ccccc2nc1Cl)S(=O)(=O)c1ccccc1,"inconclusive: 1.46 µM [activator, full curve, poor fit]",–
O=C(NCCCCc1ccccc1)c1cccc(NC(=O)C2CCCC2)c1,–,inactive: -0.82%
COc1ccc(CNS(=O)(=O)c2ccc(-c3cc(C)no3)cc2)cc1,"inconclusive: 23.1 µM [activator, single point]",–
O=C(Cc1ccc([N+](=O)[O-])cc1)NCc1ccccn1,"inconclusive: 29.1 µM [activator, single point]",–
Cc1ccc(-c2[nH]c(-c3ccc(C(=O)O)cc3)nc2-c2ccccc2)cc1,"inconclusive: 20 µM [activator, single point]",–
CC(NC(=O)CN1C(=O)NC(C)(C2CC2)C1=O)c1ccc(F)cc1 (stereo not drawn),"inconclusive: 1.46 µM [activator, partial curve, poor fit]",–
O=C(Nc1ccc2oc(-c3ccncc3)nc2c1)c1cccs1,"inconclusive: 25.9 µM [activator, single point]",–
CCCn1nc(NC(=O)CC(C)C)c2cc3cccc(C)c3nc21,active: 10.3 µM,–
COc1ccc(C2SCC(=O)N2CC23CC4CC(CC(C4)C2)C3)cc1 (stereo not drawn),"inconclusive: 3.66 µM [activator, single point]",–
Cc1ccc(C2CC2c2n[nH]c(=S)n2-c2cccc(C)c2)cc1 (stereo not drawn),"inconclusive: 18.4 µM [activator, single point]",–
CO/N=C/C(C(C)=O)C(=O)Nc1ccc(Cl)cc1Cl (stereo not drawn),"inconclusive: 29.1 µM [activator, partial curve, poor fit]",–
COc1ccc(C)cc1Nc1nc(-c2c[nH]c3ccccc23)cs1,"inconclusive: 13 µM [activator, partial curve]",–
NCC/C=C1/c2ccccc2CSc2ccccc21,"inconclusive: 35.5 µM [activator, single point]",–
O=C(NCCc1ccccc1)c1oc2ccccc2c1COc1ccccc1,"inconclusive: 29.1 µM [activator, single point]",–
CCN(CC)c1ccc(/C=N/Nc2nc(C)cc(=O)[nH]2)c(O)c1,"inconclusive: 0.651 µM [activator, full curve]",–
CC1=C(C(=O)Nc2nc3ccccc3s2)C(c2ccco2)C(C#N)=C(SCC(=O)NC2CCCCC2)N1 (stereo not drawn),active: 18.4 µM,–
COc1ccc(CN(C)CC(=O)Nc2ccc(SC(F)F)cc2)cc1OC,–,inactive: -1.28%
CN(C)S(=O)(=O)c1ccc(N2CCCC2)c(C(=O)Nc2ccccc2Br)c1,–,inactive: -53.1%
CC12CC3CC(C)(C1)CC(CN)(C3)C2,"inconclusive: 23.1 µM [activator, partial curve, poor fit]",–

Structure (SMILES),Potency,re-replication activation
O=C(NCc1ccc(F)cc1)C(=O)NCC(c1ccco1)N1CCOCC1 (stereo not drawn),–,inactive: 3.85%
C=CCN1CC(=O)N2C(C)c3[nH]c4ccccc4c3C[C@H]2C1=O (stereo partly drawn),"inconclusive: 29.1 µM [activator, single point]",–
CC1CCCCN1CCn1c(=S)[nH]c2ncccc2c1=O (stereo not drawn),–,inactive: -14.7%
O=C(NC(=S)Nc1cccc(S(=O)(=O)NC2=NCCC2)c1)c1cc(-c2ccco2)nc2ccccc12,active: 9.2 µM,–
Fc1cc(F)c(F)c(SCCc2ccncc2)c1F,"inconclusive: 29.1 µM [activator, single point]",–
Cc1ccc(NC(=O)CSc2ncn[nH]2)cc1,–,inactive: 0.171%
Cc1ccc(/C=N/NC(=O)Cc2ccc(Cl)cc2)c(O)c1,active: 7.31 µM,–
O=S(=O)(Nc1ncccn1)c1ccc(NS(=O)(=O)c2cc(Cl)ccc2Cl)cc1,"inconclusive: 29.1 µM [activator, single point]",–
Cc1cc(SCC(=O)Nc2ccccc2)n2ncc(-c3ccccc3)c2n1,"inconclusive: 18.4 µM [activator, single point]",–
O=C(NCc1ccccn1)/C(=N/O)c1ccccc1,"inconclusive: 25.9 µM [activator, single point]",–
CCCCN1CCC(CN2C(=O)C(=O)NC[C@@H]2Cc2ccccc2)CC1,"inconclusive: 29.1 µM [activator, single point]",–
COc1cc(OCC(N)=O)cc(OC)c1OC,"inconclusive: 6.51 µM [activator, single point]",–
O=C(N/N=C/c1ccccn1)c1cccc(S(=O)(=O)N2CCCC2)c1,"inconclusive: 6.51 µM [activator, single point]",–
O=C(O)c1c2c(nc3ccccc13)/C(=C/c1ccc(O)cc1)CC2,"inconclusive: 14.6 µM [activator, partial curve, poor fit]",–
CC(=O)Nc1ccc(SCC(=O)N(C)C2CCS(=O)(=O)C2)cc1 (stereo not drawn),–,inactive: -6.18% [at 1.84 µM]
CCOc1ccccc1NC(=O)c1cc2ccccc2oc1=O,"inconclusive: 20.6 µM [activator, partial curve, poor fit]",–
c1cc2c(cc1C1=NNC(=NC3CC3)SC1)OCCO2,active: 4.11 µM,–
O=C(Cc1ccc(-n2cccc2)cc1)NCc1cccs1,"inconclusive: 5.8 µM [activator, partial curve, poor fit]",–
COc1ccc(-c2cc(=O)oc3cc(O)ccc23)cc1,"inconclusive: 5.8 µM [activator, full curve, poor fit]",–
CCOC(=O)C1(CCOc2ccccc2)CCN(Cc2ccc(OC)cc2)CC1,"inconclusive: 29.1 µM [activator, single point]",–
C=C1C(=O)OC2C1C(OC(=O)C(C)=CC)CC(=C)C1C(O)C3OC3(C)C21O (stereo not drawn),active: 20.6 µM,–
Cc1ccc(Cn2c(=N)n(CC(=O)c3ccc([N+](=O)[O-])cc3)c3ccccc32)cc1,"inconclusive: 25.9 µM [activator, single point]",–
